Results on one compound are retold here after ChEMBL document CHEMBL1795257, “Synthesis of new opioid derivatives with a propellane skeleton and their pharmacology: part 1” (Bioorg Med Chem Lett, 2011).

The nature of this assay: Displacement of [3H]NTI from delta opioid receptor in guinea pig forebrain homogenate by scintillation counting. It counts as tissue-based, Cavia porcellus, Brain. On the technique in general: In a radioligand displacement assay an active substance lowers the binding of a labelled ligand.

`CN1CC[C@]23c4c5ccc(O)c4O[C@H]2[C@@H](O)C=C[C@H]3[C@H]1C5` [MORPHINE]: the Ki was determined as 140 nM.

Broadly, the Ki is the equilibrium dissociation constant of an inhibitor or competing ligand from its target.
